# PubChem BioAssay AID540256 (National Center for Advancing Translational Sciences (NCATS), 2011)
# Among all 300,000 compounds or so, about 3,700 (1.2%) were called active. Inconclusive means that the source gave no clear call. Such entries were picked first, then a sample of the others. The call rests on the fitted dose curve; tested in HEK293 cells. A potency beside an inconclusive call is a rough fit, not a confirmed value.
# Assay: qHTS for Inhibitors of binding or entry into cells for Lassa Virus; further: nearly all actives have a fitted effect of over 50% in size
# Conditions: Lassa virus pseudotype entry inhibition, cell reporter; series mostly up to 37.9 µM
# Potency means the concentration at half of the fitted maximal effect.
row,Compound,Potency
1,Cc1ccc(F)c(NC(=O)CCc2ccccc2)c1,"inconclusive: 1.83 µM [activator, full curve, poor fit]"
2,CCOC1=CC(=O)OC(c2ccccc2)C1 (configuration not stated),inactive
3,COc1ccc(/C=N/Nc2nc(N3CCCC3)nc(N3CCCC3)n2)cc1,inactive
4,CCc1ccc(C(=O)OCC(=O)c2c(N)n(CC(C)C)c(=O)n(C)c2=O)cc1,"inconclusive: 8.91 µM [inhibitor, partial curve, poor fit]"
5,Cc1cc(C(=O)NC2CCCc3c2cnn3-c2ccc(C(C)(C)C)cc2)nn1C (configuration not stated),"inconclusive: 10 µM [inhibitor, partial curve, poor fit]"
6,Cc1ccc(-n2c(C)cc(C(=S)N3CCOCC3)c2C)cc1C,"inconclusive: 32.6 µM [inhibitor, single point]"
7,Cc1cc(C(=O)Nc2sccc2C(N)=O)c(C)o1,inactive
8,O=C(c1ccccc1C(=O)N1CCN(c2ccc(F)cc2)CC1)N1CCN(c2ccc(F)cc2)CC1,"inconclusive: 10 µM [inhibitor, partial curve]"
9,CC(C)COc1ccc(-c2cc(C(=O)NN)[nH]n2)cc1,"inconclusive: 6.51 µM [activator, partial curve, poor fit]"
10,COc1ccc(-c2c(C)nn3c(N4CCOCC4)cc(C)nc23)cc1OC,inactive
11,O=C(NCC1CCN(c2ccc(S(=O)(=O)N3CCOCC3)cc2)CC1)Nc1ccccc1,"inconclusive: 5.01 µM [activator, single point]"
12,COc1ccc(C)cc1Nc1nc(N)c2cc(OC)c(OC)cc2n1,"inconclusive: 25.1 µM [inhibitor, single point]"
13,N#Cc1ccc(-c2ccc(OCC(=O)NN=Cc3ccncc3)cc2)cc1,inactive
14,CC(=O)Nc1ccc(NC(=O)CSc2nc(N)c(NC(=O)c3ccco3)c(=O)[nH]2)cc1,"inconclusive: 0.501 µM [inhibitor, full curve, poor fit]"
15,CCN(CC)CC(O)CN1c2ccccc2Sc2ccccc21 (configuration not stated),"inconclusive: 10 µM [inhibitor, partial curve, poor fit]"
16,CC(NC(=O)N(Cc1ccccc1)Cc1ccc2c(c1)OCO2)(C(F)(F)F)C(F)(F)F,"inconclusive: 29.1 µM [inhibitor, single point]"
17,Cc1ccc(C)c(OCc2ccc(C(=O)N3N=C(C(F)F)CC3(O)C(F)F)o2)c1 (configuration not stated),"inconclusive: 20.6 µM [inhibitor, partial curve, poor fit]"
18,Cc1nc2c(c(C)nn2-c2ccccc2)c(C)c1CCC(=O)NCc1ccccc1,inactive
19,CCc1cccc(NC(=O)C2CCN(S(=O)(=O)c3cccc(-c4noc(C)n4)c3)CC2)c1,"inconclusive: 20 µM [inhibitor, partial curve, poor fit]"
20,COC(=O)c1[nH]c2ccccc2c1NC(=O)CN1CC(C)OC(C)C1 (configuration not stated),"inconclusive: 2.51 µM [inhibitor, partial curve, poor fit]"
21,COc1ccc(NC(=O)c2oc3ccccc3c2NC(=O)Cc2cccs2)c(OC)c1,"inconclusive: 5.01 µM [inhibitor, single point]"

# Arranged by count of non-hydrogen atoms (rising): 3 of the compounds above.
row,Compound,Potency
10,COc1ccc(-c2c(C)nn3c(N4CCOCC4)cc(C)nc23)cc1OC,inactive
5,Cc1cc(C(=O)NC2CCCc3c2cnn3-c2ccc(C(C)(C)C)cc2)nn1C (configuration not stated),"inconclusive: 10 µM [inhibitor, partial curve, poor fit]"
8,O=C(c1ccccc1C(=O)N1CCN(c2ccc(F)cc2)CC1)N1CCN(c2ccc(F)cc2)CC1,"inconclusive: 10 µM [inhibitor, partial curve]"

# Additional entries.

row,Compound,Potency
1,CCOC(=O)N1CCN(C(=O)COc2cccc3c2CCN(CC)C3=O)CC1,inactive
2,C=CCN(C(=O)c1csnn1)C(C(=O)NCc1ccccc1)c1cccs1 (configuration not stated),"inconclusive: 11.2 µM [inhibitor, partial curve, poor fit]"
3,Cc1ccccc1-c1nc(Cc2ccccc2)no1,inactive
4,Cn1c(-c2ccc(Cl)nc2)nc2cc(Cl)ccc21,"inconclusive: 15.8 µM [activator, single point]"
5,COc1cccc(NC(=O)Cc2cccs2)c1,inactive
6,COc1ccc(CN2CCN(C(=O)c3cc(-c4cccnc4)nc4ccc(Cl)cc34)CC2)c(OC)c1OC,"inconclusive: 35.5 µM [inhibitor, single point]"
7,O=C(COC(=O)c1ccc(Cl)c(S(=O)(=O)N2CCCCCC2)c1)Nc1ccccc1,"inconclusive: 15.8 µM [activator, single point]"
8,C=CCNC(=O)NC(=O)COC(=O)/C(C#N)=C/c1cc(C)n(CC(C)C)c1C,"inconclusive: 1.83 µM [inhibitor, partial curve, poor fit]"
9,O=C(NCC1CCCN(Cc2ccccc2F)C1)c1cccc(C(F)(F)F)c1 (configuration not stated),inactive
10,COc1ccc(NS(=O)(=O)c2cccc(C(=O)NCC3(N4CCCCC4)CCCCC3)c2)cc1,inactive
11,Cc1cccc(NC(=O)c2nc(S(=O)(=O)Cc3ccccc3)ncc2Cl)c1,"inconclusive: 35.5 µM [inhibitor, single point]"
12,NS(=O)(=O)c1ccc(CCNC(=O)c2cc(-c3cccs3)nc3ccccc23)cc1,"inconclusive: 14.1 µM [inhibitor, partial curve, poor fit]"
13,CCC(C)c1ccc(O)c(/C=N/O)c1 (configuration not stated),"inconclusive: 35.5 µM [inhibitor, single point]"
14,CN(C)CCNC(=O)c1ccc2c(c1)N(Cc1c(F)cccc1Cl)C(=O)c1ccccc1S2,"inconclusive: 35.5 µM [inhibitor, single point]"
15,O=C(COc1ccc(C(=O)NCCc2ccccc2)cc1)Nc1ccccc1,inactive
16,Cc1ccc(S(=O)(=O)c2nc(-c3ccc(F)cc3)oc2N2CCOCC2)cc1,"inconclusive: 4.47 µM [inhibitor, full curve, poor fit]"
17,CCOC(=O)Cn1c(=O)oc2cc(S(=O)(=O)N3CCN(c4cc(C)ccc4C)CC3)ccc21,"inconclusive: 11.2 µM [activator, partial curve, poor fit]"
18,COc1cccc(C(c2ccccc2)N2C3CCC2CN(S(=O)(=O)c2ccc(F)cc2)CC3)c1 (configuration not stated),"inconclusive: 3.16 µM [inhibitor, full curve]"
19,COc1ccc(N2CCN(C(=O)Cc3ccc(Cl)cc3)CC2)cc1,"inconclusive: 3.16 µM [inhibitor, partial curve, poor fit]"
20,O=C(NN=Cc1ccc([N+](=O)[O-])cc1)C1CC1,"inconclusive: 1.26 µM [inhibitor, single point]"
21,Cc1ccc(N(CC(=O)Nc2ccc(F)cc2)S(=O)(=O)N2CCCC2)cc1,"inconclusive: 0.398 µM [inhibitor, partial curve, poor fit]"
